The values below come from patent US8030300B2, “Ligands for nicotinic acetylcholine receptors, and methods of making and using them” (priority 2003, dated 2011).

Sequences of proteins named here, by UniProt entry; tags and fusion partners are left off. Residues count along the entry.
UniProt P04757, 26-499 limits assumed: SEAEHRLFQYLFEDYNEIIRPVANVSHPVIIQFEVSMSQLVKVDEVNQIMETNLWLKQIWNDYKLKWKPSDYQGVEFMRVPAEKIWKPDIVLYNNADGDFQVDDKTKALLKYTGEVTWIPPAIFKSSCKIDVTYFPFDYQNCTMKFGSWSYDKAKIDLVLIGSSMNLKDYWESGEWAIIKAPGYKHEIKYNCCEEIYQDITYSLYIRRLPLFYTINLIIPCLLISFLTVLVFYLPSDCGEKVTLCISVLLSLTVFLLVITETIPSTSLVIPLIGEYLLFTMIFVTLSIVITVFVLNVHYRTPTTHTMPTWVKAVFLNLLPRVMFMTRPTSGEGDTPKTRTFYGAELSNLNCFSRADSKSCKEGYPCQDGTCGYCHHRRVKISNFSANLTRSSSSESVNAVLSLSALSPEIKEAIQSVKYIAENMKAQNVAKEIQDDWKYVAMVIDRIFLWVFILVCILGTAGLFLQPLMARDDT
UniProt P12390, 25-500 limits assumed: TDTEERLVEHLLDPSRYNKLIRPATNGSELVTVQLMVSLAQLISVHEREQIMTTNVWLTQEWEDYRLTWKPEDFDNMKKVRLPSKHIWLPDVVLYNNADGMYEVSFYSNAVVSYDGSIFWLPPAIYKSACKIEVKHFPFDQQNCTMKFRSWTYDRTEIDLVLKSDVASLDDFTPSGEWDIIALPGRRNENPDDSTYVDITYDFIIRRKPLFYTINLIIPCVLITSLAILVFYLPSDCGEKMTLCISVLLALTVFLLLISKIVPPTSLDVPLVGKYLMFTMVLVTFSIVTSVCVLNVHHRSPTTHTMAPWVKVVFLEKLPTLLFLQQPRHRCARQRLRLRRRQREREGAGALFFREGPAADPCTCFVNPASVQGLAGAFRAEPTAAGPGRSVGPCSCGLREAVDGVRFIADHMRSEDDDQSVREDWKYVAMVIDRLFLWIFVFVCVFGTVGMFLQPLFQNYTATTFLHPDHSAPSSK
UniProt P12389, 28-511 limits assumed: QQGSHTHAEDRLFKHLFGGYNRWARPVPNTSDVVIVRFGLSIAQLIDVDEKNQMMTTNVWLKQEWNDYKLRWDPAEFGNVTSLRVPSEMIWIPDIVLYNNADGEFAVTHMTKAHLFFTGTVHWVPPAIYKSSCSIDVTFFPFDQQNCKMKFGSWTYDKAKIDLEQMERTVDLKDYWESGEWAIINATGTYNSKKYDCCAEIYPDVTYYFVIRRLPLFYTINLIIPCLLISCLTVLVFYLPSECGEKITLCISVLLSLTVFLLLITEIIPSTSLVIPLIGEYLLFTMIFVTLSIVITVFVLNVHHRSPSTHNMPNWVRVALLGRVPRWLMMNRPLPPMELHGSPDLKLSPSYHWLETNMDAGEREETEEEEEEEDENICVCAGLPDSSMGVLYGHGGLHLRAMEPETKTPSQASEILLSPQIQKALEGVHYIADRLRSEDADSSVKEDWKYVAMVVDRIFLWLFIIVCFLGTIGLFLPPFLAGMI
UniProt P09483, 31-630 limits assumed: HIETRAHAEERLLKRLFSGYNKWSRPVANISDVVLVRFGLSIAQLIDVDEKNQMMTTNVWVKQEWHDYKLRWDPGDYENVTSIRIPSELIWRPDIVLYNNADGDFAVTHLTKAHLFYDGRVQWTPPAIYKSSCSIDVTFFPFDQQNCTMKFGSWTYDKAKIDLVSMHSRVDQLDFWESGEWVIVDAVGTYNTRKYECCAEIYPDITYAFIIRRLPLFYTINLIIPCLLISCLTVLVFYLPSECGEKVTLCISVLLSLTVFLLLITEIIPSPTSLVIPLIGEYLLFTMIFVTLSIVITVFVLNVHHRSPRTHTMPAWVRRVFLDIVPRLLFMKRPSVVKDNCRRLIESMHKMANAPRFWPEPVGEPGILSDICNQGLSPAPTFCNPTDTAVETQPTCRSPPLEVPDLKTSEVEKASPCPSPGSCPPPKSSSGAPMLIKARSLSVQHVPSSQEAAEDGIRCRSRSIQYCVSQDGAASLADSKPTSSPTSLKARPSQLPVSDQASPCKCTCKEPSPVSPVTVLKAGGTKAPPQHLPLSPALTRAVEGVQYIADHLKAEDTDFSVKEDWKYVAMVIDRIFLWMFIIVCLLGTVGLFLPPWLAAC
UniProt P12392, 21-495 limits assumed: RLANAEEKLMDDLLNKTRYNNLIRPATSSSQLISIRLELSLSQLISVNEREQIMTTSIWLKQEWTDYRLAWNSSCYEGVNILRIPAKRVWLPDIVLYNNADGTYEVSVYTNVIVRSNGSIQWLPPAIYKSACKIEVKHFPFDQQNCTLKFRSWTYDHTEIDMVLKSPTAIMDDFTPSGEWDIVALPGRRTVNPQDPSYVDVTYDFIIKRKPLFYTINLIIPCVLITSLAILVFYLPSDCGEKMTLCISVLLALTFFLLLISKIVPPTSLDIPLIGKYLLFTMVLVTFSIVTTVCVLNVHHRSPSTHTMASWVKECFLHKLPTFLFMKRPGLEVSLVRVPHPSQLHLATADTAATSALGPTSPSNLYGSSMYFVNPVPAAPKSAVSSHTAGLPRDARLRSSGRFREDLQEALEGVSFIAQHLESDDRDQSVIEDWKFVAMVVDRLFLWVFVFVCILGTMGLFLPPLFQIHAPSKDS

SMILES strings stand for the structures. The match of structure and compound is tentative.

For one assay, the target named is α3β2 nAChR subtype (Rattus norvegicus, UniProt P04757+P12390). Conditions: read-out: Ki α3β2.
The target in the next assay is α2β2 nAChR subtype (Rattus norvegicus, UniProt P12389+P12390). Conditions: read-out: Ki α2β2.
A further assay deals with α4β4 nAChR subtype (Rattus norvegicus, UniProt P09483+P12392). The following applies: read-out: Ki α4β4.

By Ki is commonly meant the equilibrium dissociation constant of an inhibitor or competing ligand from its target. As for `FC1CC2NC1CC2c1ccc(Cl)nc1` (stereo not drawn) [Ligand 10, 2-exo-(2-Chloro-5-pyridyl)-5-exo-fluoro-7-azabicyclo[2.2.1]heptane], the Ki at α3β2 nAChR subtype was determined as 0.65 nM; on α2β2 nAChR subtype it was 0.86 nM; at α4β4 nAChR subtype it was 1.22 nM.
